Publication PMC7987952
Results are given in words; binding and its absence hold for the method and conditions named. Binding seen in cells or lysates may run through a third protein. Some binding calls cover weakened binding; strength is not graded here.

The chains behind the UniProt entries cited, without tags or fusion partners.
UniProt O14771: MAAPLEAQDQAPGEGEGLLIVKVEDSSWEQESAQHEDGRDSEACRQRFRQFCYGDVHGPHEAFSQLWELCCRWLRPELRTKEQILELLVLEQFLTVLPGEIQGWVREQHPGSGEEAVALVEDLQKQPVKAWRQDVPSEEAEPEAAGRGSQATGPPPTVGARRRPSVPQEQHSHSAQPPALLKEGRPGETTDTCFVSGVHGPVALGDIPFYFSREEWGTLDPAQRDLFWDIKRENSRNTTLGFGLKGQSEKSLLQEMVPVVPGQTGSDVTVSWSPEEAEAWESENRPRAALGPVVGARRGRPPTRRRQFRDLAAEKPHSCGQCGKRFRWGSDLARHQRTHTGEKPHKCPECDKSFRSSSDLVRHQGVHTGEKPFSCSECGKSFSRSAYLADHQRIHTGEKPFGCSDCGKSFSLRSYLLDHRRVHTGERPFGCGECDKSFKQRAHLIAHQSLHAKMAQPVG
UniProt P03372: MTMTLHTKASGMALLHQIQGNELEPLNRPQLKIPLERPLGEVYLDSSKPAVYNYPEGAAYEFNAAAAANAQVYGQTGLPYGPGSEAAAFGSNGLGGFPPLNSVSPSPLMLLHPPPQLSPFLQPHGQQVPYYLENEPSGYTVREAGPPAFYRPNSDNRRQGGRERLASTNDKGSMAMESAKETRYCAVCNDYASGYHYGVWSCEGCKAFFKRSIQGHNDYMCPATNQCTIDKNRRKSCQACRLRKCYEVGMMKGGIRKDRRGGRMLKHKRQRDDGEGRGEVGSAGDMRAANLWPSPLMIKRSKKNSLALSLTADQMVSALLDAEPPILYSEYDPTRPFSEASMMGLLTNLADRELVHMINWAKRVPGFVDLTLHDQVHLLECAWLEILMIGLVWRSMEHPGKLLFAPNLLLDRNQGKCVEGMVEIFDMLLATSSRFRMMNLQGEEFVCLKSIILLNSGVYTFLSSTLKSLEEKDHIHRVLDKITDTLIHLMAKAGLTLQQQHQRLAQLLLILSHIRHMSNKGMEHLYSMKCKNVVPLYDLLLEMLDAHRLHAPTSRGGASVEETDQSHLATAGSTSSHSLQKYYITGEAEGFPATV

Key:
[1] = molecular target: GFP-ZNF213 full length (UniProt O14771); experiment: co-IP; HEK293 cells transfected with GFP-ZNF213 (full length or deletion domains) and ER alpha plasmid (full length or deletion domains); lysates pre-cleared with IgG, immunoprecipitated with GFP antibody, western blot; rabbit IgG as negative control
[2] = molecular target: Estrogen receptor alpha (endogenous, MCF-7) (human (endogenous in MCF-7)) (UniProt P03372); experiment: co-IP; endogenous proteins; MCF-7 total cell lysate (RIPA lysis buffer) pre-cleared with rabbit IgG, immunoprecipitated with ER alpha antibody overnight, blotted with anti-ZNF213; rabbit IgG as negative control

Row | binding [1] | binding [2] | Substance
1 | binds | – | ER alpha full length (transfected) (from UniProt P03372 1-595)
2 | – | binds | Zinc finger protein 213 (endogenous, MCF-7) (from UniProt O14771 1-459)
